Measured values from PubChem BioAssay AID651640 (Broad Institute, 2012).
Screen size: about 350,000 compounds; about 6,000 (1.7%) were called active. Inconclusive results, whose numbers are uncertain, are shown with a selection of clear calls. Rule as the data show it: active = CPE inhibition above about 20% (passing the limit was not always enough); inconclusive = no clear call, values can overlap the other calls; tested in BHK-21 cells. Where a structure was tested more than once in an assay, its records may differ in their call.

Test: protection of cells from dengue 2 killing – plate reader, single concentration, primary screen (AID 651640);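 also: 0% = median of neutral control wells and 100% = median of positive control wells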
Settings: DENV2-infected cells, cytopathic effect rescue, at 9.99 µM, active compounds read high
In the case of `Clc1ccc(CN2CCC(c3ccccc3)CC2)cc1`, the CPE inhibition is reported as inconclusive: 33.1%. With `C[C@@H]1CCCCO[C@H](CN(C)S(=O)(=O)c2ccc(Cl)cc2)[C@H](C)CN([C@@H](C)CO)C(=O)c2cc(NS(=O)(=O)c3cccs3)ccc2O1` the CPE inhibition was active: 63.8%. For `COc1ccc(NC(=S)NCc2ccc(S(N)(=O)=O)cc2)c(OC)c1`, the CPE inhibition was inconclusive: 65.2%. In the case of `CC1CCN(S(=O)(=O)c2cc3c4c(c2)CCN4C(=O)CC3)CC1`, the CPE inhibition is reported as inconclusive: 51.4%. With `CC(C)NC(=O)N[C@@H]1CC[C@@H](CCNC(=O)C2CCOCC2)O[C@H]1CO` the CPE inhibition was inactive: -1.4%. With `CCCCCCN(C(=O)CCCCCN1C(=O)NC(c2ccc([N+](=O)[O-])cc2)C(C(=O)OCc2ccccc2)=C1C)C(C(=O)NCCCC)C1CCCCC1` (configuration not stated) the CPE inhibition was inconclusive: 56%. For `Cc1cc(C(F)(F)F)nc(SCC(=O)Nc2nccs2)n1`, the CPE inhibition was inconclusive: 23.8%. For `Cc1n[nH]c(C)c1CCN(C)C(=O)C1CCC(=O)N(CC2CCCCC2)C1` (configuration not stated), the CPE inhibition was inconclusive: 24.4%. In the case of `COc1ccc(-c2ccc3c(c2)[C@@H]2C[C@H](N(C)C(=O)C(C)(C)C)[C@H]([C@H](C)O)C(=O)N2CC3)cc1`, the CPE inhibition is reported as active: 129%. For `Nc1ncnc2[nH]c(=S)[nH]c12`, the CPE inhibition was inactive: -9.68%. In the case of `CNC(=O)C1(C(F)(F)F)C/C(=C\CCO)CCCO1` (configuration not stated), the CPE inhibition is reported as inconclusive: 37.4%. In the case of `C[C@H](CO)N1C[C@H](C)[C@@H](CN(C)C(=O)Nc2cccc(F)c2)Oc2ncc(C3=CCCCC3)cc2C1=O`, the CPE inhibition is reported as active: 20.4%. With `C[C@H](CO)N1C[C@H](C)[C@H](CN(C)S(=O)(=O)c2ccc(Cl)cc2)OCCCC[C@H](C)Oc2ccc(NC(=O)c3ccccc3)cc2C1=O` the CPE inhibition was active: 21.4%. For `CCOc1ccc(S(=O)(=O)N(CC)CC(=O)NCc2ccncc2)cc1C`, the CPE inhibition was inconclusive: 29.2%. In the case of `CCCC(=O)N1CC2(CCN(C(=O)CC3CC3)CC2)c2c(n(C)c3cc(OC)ccc23)[C@@H]1CO`, the CPE inhibition is reported as inconclusive: 68.1%. For `C[C@H]1CN([C@@H](C)CO)C(=O)c2cc(NC(=O)Cn3cnnn3)ccc2O[C@H]1CN(C)Cc1ccncc1`, the CPE inhibition was inconclusive: 25.2%. In the case of `c1ccc(CSc2nnc(-c3ccccc3)c(-c3ccccc3)n2)cc1`, the CPE inhibition is reported as inconclusive: 20.9%. With `CCN(C[C@H]1[C@H](c2ccccc2)[C@@H](CO)N1CC1CC1)C(=O)c1ccccn1` the CPE inhibition was active: 21%. With `O=S(=O)(c1ccc(F)cc1)N1CCCCN2[C@H](C1)[C@@H](c1ccc(-c3cncnc3)cc1)[C@@H]2CO` the CPE inhibition was inconclusive: 42.9%. For `CC(C)NC(=O)Nc1ccc2c(c1)CC(=O)N([C@@H](C)CO)C[C@@H](C)[C@H](CN(C)Cc1ccc(C(=O)O)cc1)O2`, the CPE inhibition was inconclusive: 21.9%. With `CCN1CCCC1CNc1ccc(S(C)(=O)=O)cc1[N+](=O)[O-]` (configuration not stated) the CPE inhibition was inconclusive: 26.9%. With `CS(=O)(=O)NCCOc1ccc(S(=O)(=O)NCCOc2ccccc2)cc1` the CPE inhibition was inconclusive: 21.4%. For `O=C(N/N=C\C=C\c1ccc([N+](=O)[O-])o1)c1cccs1`, the CPE inhibition was inactive: 5.87%. For `CCOC(=O)c1ccn(S(=O)(=O)c2ccc(C)cc2)c1-c1ccccc1`, the CPE inhibition was inconclusive: 42.1%. For `CC(NC(=O)C1CCN(S(=O)(=O)c2cccc3nonc23)CC1)c1ccccc1` (configuration not stated), the CPE inhibition was inconclusive: 25.5%. For `COc1ccc2c(c1)C(=O)N1[C@H]3c4cc(OC)ccc4OC[C@@H]3[C@H](c3ccccc3)[C@]1(C)C(=O)N2`, the CPE inhibition was inconclusive: 43.6%. With `CC(C)NC(=O)Nc1ccc2c(c1)C(=O)N([C@@H](C)CO)C[C@@H](C)[C@@H](CN(C)C)O2` the CPE inhibition was inconclusive: 26.1%. For `CCC[N+](CC#Cc1ccccc1)(CCC)CC(=O)c1ccc(Cl)cc1`, the CPE inhibition was active: 45.8%. With `C[C@H]1CN([C@@H](C)CO)C(=O)c2cc(NS(=O)(=O)c3ccccc3)ccc2O[C@H]1CN(C)Cc1ccc2c(c1)OCO2` the CPE inhibition was inactive: 1.21%. In the case of `CC(C)(C)Nc1nc(Nc2ccc([N+](=O)[O-])cc2)nc(NC(C)(C)C)n1`, the CPE inhibition is reported as inconclusive: 26.5%. For `C[C@H](CO)N1C[C@H](C)[C@@H](CN(C)S(=O)(=O)c2cn(C)cn2)OCCCC[C@H](C)Oc2ccc(NS(=O)(=O)c3ccc(F)cc3)cc2C1=O`, the CPE inhibition was inconclusive: 32.7%. With `Cn1cnc2cc(NCc3cccs3)ccc21` the CPE inhibition was inconclusive: 25.8%. With `NCC[C@H](O)C(=O)N[C@@H]1C[C@H](N)[C@@H](O[C@H]2O[C@H](CN)[C@@H](O)[C@H](O)[C@H]2O)[C@H](O)[C@H]1O[C@H]1O[C@H](CO)[C@@H](O)[C@H](N)[C@H]1O` the CPE inhibition was inconclusive: 21.5%. For `COc1ccc(NC(=O)c2ccc(N3CCOCC3)nc2)cc1`, the CPE inhibition was inconclusive: 42.7%. With `COc1ccc(CNC(=O)CN(c2ccc(OC)c(Cl)c2)S(=O)(=O)c2ccc(C)cc2)cc1` the CPE inhibition was inconclusive: 26.1%. In the case of `CCCCN1C[C@H](Cc2ccccc2)[C@@H](CC(=O)NCc2ccc(OC)cc2)C1=O`, the CPE inhibition is reported as active: 48%. In the case of `O=C(NCC1CCCO1)c1onc(CSc2ccc(F)cc2)c1C(=O)O` (configuration not stated), the CPE inhibition is reported as inconclusive: 70.7%. With `CCOC(=O)C1(Cc2cccc(Cl)c2)CCCN(C(=O)c2cc(C)[nH]n2)C1` (configuration not stated) the CPE inhibition was inconclusive: 20.4%. In the case of `Nc1c(N2CCCC2)c2ccccc2oc1=O`, the CPE inhibition is reported as inactive: 6.46%. With `C[C@@H]1CCCCO[C@@H](CN(C)C(=O)CCCN(C)C)[C@H](C)CN([C@@H](C)CO)C(=O)c2cc(NC(=O)CCCN(C)C)ccc2O1` the CPE inhibition was inconclusive: 63.3%. For `CC(C)NC(=O)N[C@H]1CC[C@@H](CC(=O)NCCCN(C)C)O[C@@H]1CO`, the CPE inhibition was inconclusive: 37%. For `O=C(NCCc1ccccc1)/C(=C\c1ccc([N+](=O)[O-])cc1)NC(=O)c1ccc(Br)cc1`, the CPE inhibition was inconclusive: 22.1%. In the case of `CCCCOCC1CC(CC#CCN2CCCCC2)C(=O)O1` (configuration not stated), the CPE inhibition is reported as inconclusive: 21%. For `O=C(/C=C/NNC(=O)c1ccccc1O)c1ccccc1`, the CPE inhibition was inconclusive: 68.7%. For `COc1ccc(C)cc1NS(=O)(=O)c1ccc2c(c1)n(C)c(=O)n2C`, the CPE inhibition was inactive: 6.42%. For `COc1ccc2c3c([nH]c2c1)[C@@H](CO)N(CC1CC1)CC31CCN(C(=O)c2ccccc2F)CC1`, the CPE inhibition was inactive: -1.91%. For `CC1CCCN(S(=O)(=O)c2cc(C(=O)NCc3ccco3)ccc2Cl)C1` (configuration not stated), the CPE inhibition was inconclusive: 21.6%. For `OC[C@@H]1[C@H](c2ccc(C3=CCCCC3)cc2)[C@@H](CNC2CCCC2)N1CC1CC1`, the CPE inhibition was inactive: -16%. For `Cc1ccc(COc2ccc(/C=N/NC(=O)c3nnn(-c4nonc4N)c3COc3ccc(F)cc3)cc2)cc1`, the CPE inhibition was inactive: -0.845%. With `N#C[C@@H]1[C@@H](c2ccccc2C2=CCCC2)[C@H](CO)N1C(=O)Cc1ccncc1` the CPE inhibition was active: 29%. With `CCOc1ccc(C2C3=C(CC(C)(C)CC3=O)N(CCCOC)C3=C2C(=O)CC(C)(C)C3)cc1OC` the CPE inhibition was inconclusive: 55.7%. In the case of `O=C(Nc1ccccc1F)N[C@H]1CC[C@H](CCNS(=O)(=O)c2ccc(F)cc2)O[C@H]1CO`, the CPE inhibition is reported as inconclusive: 33.6%. With `CC(=O)Nc1cc(NC(C)=O)cc(C(=O)OCC(=O)c2ccc3c(c2)NC(=O)CO3)c1` the CPE inhibition was inconclusive: 41.9%. For `C[C@H]1C=C(C(=O)N2CCN(Cc3ccc4c(c3)OCO4)CC2)O[C@@H](OCc2ccc(CO)cc2)C1`, the CPE inhibition was active: 23.6%. For `O=C1NC(Cc2ccc(O)cc2)c2nc3ccc(Cl)cc3c(=O)n2-c2ccc(Cl)cc21` (configuration not stated), the CPE inhibition was inconclusive: 22.7%. For `Cc1occc1-c1nnc(SCC(=O)NC2CC2)n1C`, the CPE inhibition was inconclusive: 65.1%. With `O=C(N[C@H]1CC[C@H](CCNS(=O)(=O)c2ccc(F)cc2)O[C@@H]1CO)C1CCCC1` the CPE inhibition was active: 32.5%. In the case of `COc1ccc(/C=N/N2CCN(c3ccc(Cl)cc3)CC2)cc1O`, the CPE inhibition is reported as active: 31.5%. In the case of `O=C1/C(=C/c2ccco2)SC(=S)N1c1cccnc1`, the CPE inhibition is reported as inactive: 2.36%. In the case of `Cc1ccc(S(=O)(=O)N(C)c2ccc(C(=O)Nc3ccccc3C(=O)N3CCOCC3)cc2)cc1`, the CPE inhibition is reported as inconclusive: 25.8%. With `C[C@H]1CN([C@@H](C)CO)S(=O)(=O)c2ccc(-c3ccccc3F)cc2O[C@H]1CN(C)Cc1ccncc1` the CPE inhibition was active: 21.1%. For `C[C@@H]1CN([C@H](C)CO)C(=O)Cc2cc(NC(=O)CCCCCC(=O)Nc3ccccc3N)ccc2O[C@@H]1CN(C)Cc1ccc(C(F)(F)F)cc1`, the CPE inhibition was active: 80.7%. With `COCC(=O)Nc1ccc2c(c1)OC[C@H](C)N(Cc1ccccc1OC)C[C@H](C)[C@@H](OC)CN(C)C2=O` the CPE inhibition was active: 21.6%. For `CC=Cc1ccc2n(c1=O)C[C@@H]1[C@@H](CO)[C@H](C(=O)NCc3ccc(F)cc3)[C@H]2N1C` (mixture of isomers), the CPE inhibition was inconclusive: 35.9%. With `O=C(NCc1ccccc1)c1ccc(NC(=O)C2CC2)cc1` the CPE inhibition was inactive: 18.7%. With `CO[C@H]1CN(C)C(=O)c2cc(NC(C)=O)ccc2OC[C@@H](C)N(Cc2ccc(F)cc2)C[C@H]1C` the CPE inhibition was inactive: 5.41%. With `Cn1c(CNC(=O)c2ccco2)nnc1SCC(=O)Nc1c(F)cc(F)cc1Br` the CPE inhibition was inactive: 3.4%. With `C[C@H](O)C#Cc1cnc2c(c1)C(=O)N([C@@H](C)CO)C[C@H](C)[C@@H](CN(C)Cc1cccc(C(=O)O)c1)O2` the CPE inhibition was inconclusive: 38.9%. With `CC(=O)Nc1ccc(NC(=O)C(C)OC(=O)CN2C(=O)C3CCCCC3C2=O)cc1` (configuration not stated) the CPE inhibition was inconclusive: 28.1%. With `CCN(CC)CC(=O)N1CCCC(N2CCN(c3cccc(C(F)(F)F)c3)CC2)C1` (configuration not stated) the CPE inhibition was active: 29.6%. In the case of `COc1ccc(-c2cc(C(=O)Nc3cc(Br)ccc3O)no2)cc1`, the CPE inhibition is reported as inconclusive: 21.8%. For `O=C(Nc1cccc(F)c1)N1C[C@@H]2[C@H](c3ccccc31)[C@@H](CO)N2C(=O)C1CCOCC1`, the CPE inhibition was inactive: -2.21%.
